Measurements published in doi:10.1101/2025.05.30.657104.
These are yes or no findings as the source states them, for the method shown. In cells and extracts the contact can be indirect. A yes stands for co-enrichment or nearness to the bait. Other partners may have been found. For some assays here: No binding means not detected with the bait.

How the values were obtained:
[1] = target: Protein kinase C alpha D463H (PKCα_(D463H)) (human) (UniProt P17252); assay: affinity purification with mass spectrometry
[2] = target: Protein kinase C alpha (PKCα) WT (human) (UniProt P17252); assay: affinity purification with mass spectrometry

B1: GIT2 (protein, UniProt Q14161 1-759)
chain: MSKRLRSSEVCADCSGPDPSWASVNRGTFLCDECCSVHRSLGRHISQVRHLKHTPWPPTLLQMVETLYNNGANSIWEHSLLDPASIMSGRRKANPQDKVHPNKAEFIRAKYQMLAFVHRLPCRDDDSVTAKDLSKQLHSSVRTGNLETCLRLLSLGAQANFFHPEKGNTPLHVASKAGQILQAELLAVYGADPGTQDSSGKTPVDYARQGGHHELAERLVEIQYELTDRLAFYLCGRKPDHKNGQHFIIPQMADSSLDLSELAKAAKKKLQSLSNHLFEELAMDVYDEVDRRETDAVWLATQNHSALVTETTVVPFLPVNPEYSSTRNQGRQKLARFNAHEFATLVIDILSDAKRRQQGSSLSGSKDNVELILKTINNQHSVESQDNDQPDYDSVASDEDTDLETTASKTNRQKSLDSDLSDGPVTVQEFMEVKNALVASEAKIQQLMKVNNNLSDELRIMQKKLQTLQSENSNLRKQATTNVYQVQTGSEYTDTSNHSSLKRRPSARGSRPMSMYETGSGQKPYLPMGEASRPEESRMRLQPFPAHIGRSALVTSSSSLPSFPSTLSWSRDESARRASRLEKQNSTPESDYDNTPNDMEPDGMGSSRKGRQRSMVWPGDGLVPDTAEPHVAPSPTLPSTEDVIRKTEQITKNIQELLRAAQENKHDSYIPCSERIHVAVTEMAALFPKKPKSDMVRTSLRLLTSSAYRLQSECKKTLPGDPGSPTDVQLVTQQVIQCAYDIAKAAKQLVTITTKENNN
With B1 as the binder, how does the binding [1] read?
The binding was “no binding”.

And the binding [2]?
Its binding is “binds”.
